# Laboratory results published in the supplement of paper PMC3334620.
# Whole data set: some 33,000 sequences, median “E-score (-0.5 to 0.5)” near -0.015, cut for the highest 2% near 0.3. This is one part of the list.
# Target: T1, Abf1 (UniProt P14164)
# T1 sequence: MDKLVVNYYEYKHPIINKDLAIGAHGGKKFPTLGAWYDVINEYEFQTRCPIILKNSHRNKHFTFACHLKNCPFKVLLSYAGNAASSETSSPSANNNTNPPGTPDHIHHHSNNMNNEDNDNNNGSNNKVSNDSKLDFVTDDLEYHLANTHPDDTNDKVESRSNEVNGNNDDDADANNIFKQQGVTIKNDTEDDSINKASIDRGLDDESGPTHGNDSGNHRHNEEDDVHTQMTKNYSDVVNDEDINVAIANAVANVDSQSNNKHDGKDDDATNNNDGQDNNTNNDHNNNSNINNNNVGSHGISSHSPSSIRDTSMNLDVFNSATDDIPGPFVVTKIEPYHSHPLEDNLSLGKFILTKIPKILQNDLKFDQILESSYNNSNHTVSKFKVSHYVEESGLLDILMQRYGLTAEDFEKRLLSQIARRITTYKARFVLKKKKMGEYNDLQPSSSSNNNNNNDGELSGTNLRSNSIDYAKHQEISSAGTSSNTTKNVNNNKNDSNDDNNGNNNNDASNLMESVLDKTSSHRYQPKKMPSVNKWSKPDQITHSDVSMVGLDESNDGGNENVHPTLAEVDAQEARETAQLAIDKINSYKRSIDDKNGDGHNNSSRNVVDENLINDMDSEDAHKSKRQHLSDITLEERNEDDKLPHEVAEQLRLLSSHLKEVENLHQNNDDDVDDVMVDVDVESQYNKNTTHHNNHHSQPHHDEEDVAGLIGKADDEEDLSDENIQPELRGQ
# Experiment: PBM E-score (8-mer binding enrichment) (E-score (-0.5 to 0.5)); higher = stronger / more preferred TF binding
# Conditions: protein concentration: 200 nM; construct: GST-full length
# Outline: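 Masliner-normalised scans of fluorescent anti-GST signal were the basis for scoring. That signal came from GST-tagged yeast transcription factors applied at about 100-200 nM to double-stranded universal all-10-mer Agilent arrays on fresh or once-stripped slides. Each ungapped eight-base word, pooled with its reverse complement, received an E-score from the Universal PBM Analysis Suite.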
row,Sequence,PBM E-score
1,GCCAAGAA,-0.0222
2,TCTCAAAA,0.0551
3,CAAGTGGC,-0.217
4,CGGCTCCC,-0.163
5,CGCGCTTC,-0.0759
6,CACCTGAC,0.0764
7,ATAAGCTG,-0.127
8,ATTCGGGG,-0.057
9,TAGACATA,0.0778
10,AGACTCAT,-0.0329
11,ACTCAGAG,-0.158
12,AGGGTACT,-0.197
13,ATCCAGCG,0.0305
14,CTAGTATA,0.0664
15,ACGAACCT,0.146
16,ATTCGGAA,0.0588
17,CGCACAAA,0.0122
18,GCACCGTA,0.0841
19,GGTGCGGA,-0.0586
20,GCCTTACC,-0.255
21,AACTACAA,0.106
22,AGTTCCGG,-0.087
23,AATGATGT,0.325
24,GAAGCCTC,-0.104
25,TGAGTCCA,-0.00076

row,Sequence,PBM E-score
1,CCTACTGA,-0.18
2,ACACGGAG,0.0978
3,CTCTTTCC,-0.418
4,CAGACAAC,-0.0277
5,ATGTAACC,-0.0595
6,ACTCGGTG,-0.0947
7,TGTCAACA,-0.00868
8,AAACTTGG,-0.183
9,ATAGCCTC,-0.153
10,GGTCCCGA,-0.219
11,CGCGCTAC,0.103
12,GCCGGATA,0.0738
13,GGGTTTCA,-0.0251
14,CGGGTGTC,-0.0118
15,AGCGCCTA,-0.0277
16,CAGCTTTA,-0.0823
17,AAGACTCC,-0.0731
18,ACTAGCCA,-0.0202
19,GAAGTACA,-0.0069
20,CACGCTAC,0.113
21,AAAGGAGC,-0.183
22,CCAGCTAC,-0.0737
23,CGATCGCC,0.159
24,AACGTCCC,-0.0713
25,TAAGCCCA,-0.0666

# 5 consecutive records from above:
row,Sequence,PBM E-score
21,AAAGGAGC,-0.183
22,CCAGCTAC,-0.0737
23,CGATCGCC,0.159
24,AACGTCCC,-0.0713
25,TAAGCCCA,-0.0666

# Remaining list, next part.

row,Sequence,PBM E-score
1,AAGGGTCC,-0.167
2,CTATTACA,0.0236
3,GTGGACAA,0.133
4,CGAGTGTC,0.137
5,GAACCTCA,0.0925
6,GGGTCGGA,-0.151
7,ACTGGTGG,-0.204
8,GAACTCTC,-0.211
9,AATACGGT,0.194
10,GGGTGGGA,-0.108
11,AGAAGGCG,-0.119
12,CTGGATCC,-0.167
13,GATCCTTA,-0.173
14,ATTACTTG,-0.0697
15,ATGCGCTG,0.0463
16,CACCAAAC,-0.0311
17,ACACGCAT,-0.101
18,CTGTGACC,-0.186
19,GCGCCTAC,-0.0694
20,CCGCCGTA,0.0615
21,GAGGAACA,-0.095
22,CCCCCCAA,-0.369
23,CCCGTGGA,0.0795
24,TAGCAAAA,0.184
25,GTGACCAC,0.175

row,Sequence,PBM E-score
1,CTACCATA,-0.0865
2,CCTAGACC,0.0667
3,AACCAGGA,-0.174
4,CGCCACGC,-0.0822
5,CTATAGAG,-0.032
6,CCTTGGTC,-0.302
7,AAAAGCTC,0.0831
8,CGTGTAAA,0.314
9,AATCTTTA,-0.0233
10,CCCGGTAA,-0.314
11,ACTACTAA,-0.0373
12,AAATTCGT,0.328
13,AACTCTAT,-0.096
14,TCCCTGAA,0.0662
15,CTAGTCTA,-0.1
16,ACCAGTTG,-0.0421
17,ACTTGACT,-0.163
18,CGCTCCTA,0.0474
19,CAATATGC,-0.0289
20,AGGTTTTA,-0.193
21,ATCGCGTC,0.137
22,AGTGCACG,0.177
23,CGCCGCAA,0.00435
24,CGATTGCC,0.116
25,AAGTGTAT,-0.092

row,Sequence,PBM E-score
1,CTCGATAC,0.0718
2,AGCAAAAG,0.0407
3,CCTAGAAA,-0.0382
4,CGCAGGAA,-0.0252
5,TACTTAAA,-0.11
6,CCTATCAA,-0.0176
7,CAGCGGCG,-0.151
8,CAGGATGA,0.197
9,AACGCTGA,0.0266
10,TGTAAAAA,-0.0577
11,GAACGGCC,0.0506
12,ATCGGAGA,-0.233
13,ATGCGTTC,0.0986
14,AACTAGCT,0.0558
15,AAACAGGG,-0.0823
16,AAGTCCTA,-0.0851
17,ACCCCGAA,-0.128
18,AAAGACGC,-0.101
19,ACGCTTGC,-0.174
20,AATCTGTC,-0.00601
21,GTGAACAA,-0.043
22,ACGATACA,0.129
23,ACTACCCC,-0.276
24,AGTGCTAG,-0.0973
25,TATCTCCA,0.0417

# An excerpt of these results, with bars between the fields:
row | Sequence | PBM E-score
4 | CGCAGGAA | -0.0252
14 | AACTAGCT | 0.0558
21 | GTGAACAA | -0.043
22 | ACGATACA | 0.129

# Next records follow:

row,Sequence,PBM E-score
1,CCTGCCAA,-0.288
2,AGAGGACG,-0.0391
3,CTACTTGC,0.0196
4,CTATACAC,-0.0734
5,CAAAGGAC,-0.244
6,ATTTTTAA,0.162
7,CGATGGTA,-0.0203
8,AGTCAAGC,-0.221
9,ACGCGCCA,-0.154
10,GCAACACC,-0.109
11,GACGATGC,0.231
12,AATAACGG,0.126
13,CCACCCAA,-0.252
14,AGCTACGG,0.0966
15,TCGCGAGA,0.198
16,GCCGTTAC,0.00322
17,CTCCTGTC,0.00524
18,ATAAGGAG,-0.0372
19,GGTGGCAC,-0.0175
20,CTCCATCA,0.0333
21,CGAAACCG,-0.0352
22,GCCACAGA,-0.124
23,CAACTATC,-0.0598
24,AATGGGCA,-0.086
25,CTGTGCAC,0.0718

row,Sequence,PBM E-score
1,CAACAAGG,-0.0973
2,AAAAATGA,0.229
3,CTACGATA,0.173
4,GTGGCGCA,-0.108
5,AGACTGTA,0.00213
6,ATCACGTC,0.336
7,AATGAAAA,0.0544
8,ACTGTCGG,-0.0555
9,AATGGTGG,-0.323
10,TCCTGAAA,0.0559
11,CCGTCCAC,0.149
12,AGGTTATC,0.0463
13,AGATCGGG,-0.215
14,ATAAAAGA,-0.0436
15,GCTCTAAA,-0.169
16,CCTATTCC,-0.139
17,GCGTCGGA,-0.111
18,AGGATCCG,-0.0941
19,ATGTCAAC,0.105
20,TAAACACA,-0.105
21,AGGTTCGA,0.186
22,AATGATTG,0.152
